Where a name gives a salt, the structure may show the parent alone. This is one part of the list. Repeats are few or missing, and single values can be far off.

The subject of the experiment is M249P (parental melanoma line). Kind of experiment: reduction in cell viability relative to untreated/vehicle; higher = more growth inhibition. The settings on record: 200 nM; 72 h.
For the compound `Oc1cc2c(cc1O)[C@@H]1c3ccc(O)c(O)c3OC[C@]1(O)C2` [Hematoxylin], the “reduction in cell viability” value was less than 0%. Next, `C[C@H]1[C@H](C)CC[C@]2(C(=O)O)CC[C@]3(C)C(=CC[C@@H]4[C@@]5(C)CC[C@H](O)C(C)(C)[C@@H]5CC[C@]43C)[C@H]12` [Ursolic acid]: less than 0%; `C[C@@H](O)[C@H]1C(=O)N2C(C(=O)OCOC(=O)C(C)(C)C)=C(SC3CN(C4=NCCS4)C3)[C@H](C)[C@H]12` [Tebipenem pivoxil]: less than 0%. For the compound `O=C(Nc1nnc(-c2ccco2)o1)c1cc(-c2ccccc2)nc2ccccc12`, the “reduction in cell viability” value was less than 0%. Take `CCOC(=O)/C=C/[C@H](C[C@@H]1CCNC1=O)NC(=O)[C@@H](CC(=O)[C@@H](NC(=O)c1cc(C)on1)C(C)C)Cc1ccc(F)cc1` [Rupintrivir]: the “reduction in cell viability” value was less than 0%. Next, `CC(C)CC(=O)Nc1n[nH]c2c1CN(C(=O)C1CCN(C)CC1)C2(C)C`: 32.4%; `Cc1nc(-c2ccc(OCC(C)C)c(C#N)c2)sc1C(=O)O` [Febuxostat]: 9.04%. With `O=C(NC1CC1)c1cccc(-c2ccc3c(NC(=O)C4CC4)n[nH]c3c2)c1` the figure was less than 0%; with `COC(=O)C1=C(C)NC(C)=C(C(=O)OCCN2CCN(C(c3ccccc3)c3ccccc3)CC2)C1c1cccc([N+](=O)[O-])c1` (configuration not stated) [Manidipine dihydrochloride], less than 0%; with `O=C1CCC(N2C(=O)c3ccccc3C2=O)C(=O)N1` (configuration not stated) [Thalidomide], less than 0%.

Regarding `CC1(C)C(=O)N(CCN2CCC(C(=O)c3ccc(F)cc3)CC2)c2ccccc21`, the “reduction in cell viability” value is less than 0%. Next, `COC1=CC(c2cc3ccccc3[nH]2)=N/C1=C\c1[nH]c(C)cc1C` [Obatoclax]: 67.2%.

The values are drawn from the supplement of paper PMC9015667.
